# Inconclusive means that the source gave no clear call. Such entries were picked first, then a sample of the others. Potencies beside an inconclusive call are fits to weak or partial responses and may not hold up. Active and inactive are the calls of the source. Rule for the calls: active = hit-call score of the fitted dose curve at least 0.9, where 1 is the maximum; inconclusive = response in the unintended direction; inactive = score below 0.9.
# Tested on: frog Glucocorticoid Receptor (GR), gene 397897
# Experiment: ATG_frGR_EcoTox2: Attagene TRANS-FACTORIAL EcoTox-2 HepG2 Assay for frog Glucocorticoid Receptor (GR)
# Method: ATG_EcoTox2 is a cell-based, multiplexed assay created by modifying the existing Attagene TRANS-FACTORIAL system to include a panel of nuclear receptors from some or all the following species: human (Homo sapiens), african clawed frog (Xenopus laevis), rainbow trout (Oncorhynchus mykiss), japanese medaka (Oryzias latipes), and zebrafish (Danio rerio). The ECOTOX2-FACTORIAL format uses HepG2, a human liver cell line, with measurements taken at 24 hours after chemical dosing in a 24-well plate. ATG_frGR_EcoTox2 is one of 29 assay components calculated in the ATG_EcoTox2 assay. It is designed to make measurements of mRNA induction, a form of inducible reporter, as detected with fluorescence intensity signals by Reverse transcription polymerase chain reaction (RT-PCR) and Capillary electrophoresis technology.The assay endpoint ATG_frGR_EcoTox2 was analyzed in the positive analysis fitting direction relative to DMSO as the negative control and baseline of activity. Using a type of inducible reporter, measures of mRNA for gain-of-signal activity can be used to understand the reporter gene at the transcription factor-level as they relate to the gene for glucocorticoid receptor. Furthermore, this assay endpoint can be referred to as a primary readout, because this assay has produced multiple assay endpoints where this one serves a reporter gene function. […]
# Human liver HepG2 cells are transiently transfected with multiple reporter transcription units (MRTUs) in 6-well plates using FuGene 6 reagent (Roche; 3 ml FuGene/1 mg DNA). […] A major difference between the CIS and TRANS system is that in CIS activities of endogenous TFs are measured, whereas the TRANS assay evaluates changes in activities of exogenous, chimeric NR-Gal4 proteins. […] The fragments were purified using Qiaquick PCR columns (Qiagen), analyzed on an ABI 3130xL genetic analyzer (Applied Biosystems) with peak positions identified by using a set of X-rhodamine (ROX)-labeled MapMarker1000 molecular weight standards (BioVentures). […]
SMILES,AC50,outcome
[Cl][Sn]([c]1ccccc1)([c]1ccccc1)[c]1ccccc1,inconclusive: 1.39 µM,–
CCCCOCN(C(=O)CCl)c1c(CC)cccc1CC,–,inactive
O=C(O)C(F)(F)C(F)(F)C(F)(F)C(F)(F)C(F)(F)C(F)(F)C(F)(F)F,inconclusive: 75 µM,–
